Assay results from patent US20040208922A1, “Method for loading lipid like vesicles with drugs or other chemicals” (The Regents of the University of California, priority 1995, published 2004).

Legend:
[1] = Loading of hydrophobic ions (cyanine dye) into vesicles by pH-gradient-generated electrical potential; assay type: physicochemical; conditions: 10 uM dye
[2] = Efflux of spin-labeled acid out of dialysis tubing containing vesicles (ESR signal); assay type: physicochemical

SMILES	external cyanine concentration ([1]; internal volume about 10%)	final cyanine concentration inside the vesicles ([1]; internal volume about 10%)	final accumulation relative to the aqueous solution outside of the vesicles ([1]; vesicles pH 4.5 inside, mixture pH 7.4, about 180 millivolts negative inside)	ESR signal leaking out of dialysis tubing ([2]; No pH gradient, 3 min)	ESR signal leaking out of dialysis tubing ([2]; No pH gradient, 10 min)	ESR signal leaking out of dialysis tubing ([2]; No pH gradient, 20 min)	ESR signal leaking out of dialysis tubing ([2]; No pH gradient, 40 min)	ESR signal, internal (intradialysis concentration at end of incubation) ([2]; No pH gradient)	ESR signal leaking out of dialysis tubing ([2]; pH gradient, 15 min)	ESR signal leaking out of dialysis tubing ([2]; pH gradient, 30 min)	ESR signal leaking out of dialysis tubing ([2]; pH gradient, 45 min)	ESR signal, internal (intradialysis concentration at end of incubation) ([2]; pH gradient)
CCN1/C(=C/C=C/C=C/c2sc3ccccc3[n+]2CC)Sc2ccccc21.[I-] [dithiasanine iodide]	about 100 nM	about 100 uM	a thousand fold	–	–	–	–	–	–	–	–	–
CC1(C)CC(NC(=O)CCC(=O)O)CC(C)(C)N1[O] [spin-labeled carboxylic acid]	–	–	–	0.09	0.15	0.17	0.18	0.24	0.11	0.12	0.15	3.0
